Record: PubChem BioAssay AID1053208 (Peter MacCallum Cancer Centre, 2014)

- Assay: 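Find knock-downs that sensitise mouse osteosarcoma cells to doxorubicin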 (primary screen)
- Cells: mouse osteosarcoma cells, early-passage culture from an engineered mouse model of fibroblastic bone tumour
- Knock-down reagent: siRNA pool against mouse genes, 40 nM
- Timing: about 120 h (48 h before drug, then 72 h with drug)
- Treatment: doxorubicin 100 nM for 72 h, roughly 30-40% inhibitory dose
- Detection: 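Viability read as ATP luminescence after 72 h of 100 nM doxorubicin or none, duplicate wells averaged, scaled to non-targeting siRNA, then expressed as robust z-scores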
- Scale: viability z-score with doxorubicin: higher = more viable cells under doxorubicin; viability z-score without drug: higher = more viable cells with knock-down alone
- Hit rule: 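Called active if knock-down leaves viability unchanged without drug (z within -2 to 2) but lowers it with doxorubicin (z at or under -2)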
Shown is an unselected part of about 17,000 deposited reagents. 788 of all reagents (4.7%) count as active. 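Calls rest on z-score classes alone; an extra cut-off of viability at most 70% of control was not applied to them.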 A number with no mark means an inactive call. Not all columns of the deposit are shown.

Against Hdgfl2, the entry reads combined z-score class no change with or without drug; viability z-score with doxorubicin -0.67; viability z-score without drug 0. After knock-down of Ror2 the results were combined z-score class no change with or without drug; viability z-score with doxorubicin 0.45; viability z-score without drug -0.17. For 1700129C05Rik, the entry reads combined z-score class low cell count with doxorubicin only (active); viability z-score with doxorubicin -2.25; viability z-score without drug -0.67. After knock-down of Impa1 the results were combined z-score class no change with or without drug; viability z-score with doxorubicin -0.79; viability z-score without drug 0.51. With knock-down of Klra10, the record shows combined z-score class high cell count without drug only; viability z-score with doxorubicin 0.9; viability z-score without drug 2.87. Against Or2t46, the entry reads combined z-score class low cell count with doxorubicin only (active); viability z-score with doxorubicin -2.02; viability z-score without drug -1.85.

Il1r2 scored combined z-score class no change with or without drug; viability z-score with doxorubicin -1.12; viability z-score without drug -1.18. Silencing of Il1b resulted in: combined z-score class no change with or without drug; viability z-score with doxorubicin 0.22; viability z-score without drug 0.51. Against Dot1l the deposit lists combined z-score class high cell count without drug only; viability z-score with doxorubicin 1.46; viability z-score without drug 2.36. Slc44a3 showed combined z-score class no change with or without drug; viability z-score with doxorubicin -0.45; viability z-score without drug -0.67. Spmip10 showed combined z-score class high cell count without drug only; viability z-score with doxorubicin 1.35; viability z-score without drug 3.54.

Entries above whose gene name begins with S or s (2):
Slc44a3 — combined z-score class: no change with or without drug; viability z-score with doxorubicin: -0.45; viability z-score without drug: -0.67
Spmip10 — combined z-score class: high cell count without drug only; viability z-score with doxorubicin: 1.35; viability z-score without drug: 3.54

Additional results follow.
Knock-down of Capn5 came out at: combined z-score class no change with or without drug; viability z-score with doxorubicin -0.22; viability z-score without drug 0.67. A130014H13Rik scored combined z-score class no change with or without drug; viability z-score with doxorubicin 0.22; viability z-score without drug 0.17. Knock-down of Enpp5 resulted in: combined z-score class no change with or without drug; viability z-score with doxorubicin 0.45; viability z-score without drug -1.18. Against Atp5pf, the entry reads combined z-score class no change with or without drug; viability z-score with doxorubicin -1.24; viability z-score without drug -0.51. Silencing of Chic2 came out at: combined z-score class no change with or without drug; viability z-score with doxorubicin 0.22; viability z-score without drug 0.17. Pde4a showed combined z-score class no change with or without drug; viability z-score with doxorubicin 0.11; viability z-score without drug -0.17.

Depletion of Trib3 came out at: combined z-score class no change with or without drug; viability z-score with doxorubicin 0.34; viability z-score without drug -0.17. Against Prepl, the entry reads combined z-score class no change with or without drug; viability z-score with doxorubicin 1.12; viability z-score without drug 0.34. Sprr3 gave combined z-score class no change with or without drug; viability z-score with doxorubicin 0.67; viability z-score without drug 0.17. After knock-down of Eif1ax, the screen gave combined z-score class no change with or without drug; viability z-score with doxorubicin 0.34; viability z-score without drug 0.84. With knock-down of Tmem140 the results were combined z-score class high cell count without drug only; viability z-score with doxorubicin 0.34; viability z-score without drug 2.19. Knock-down of Emc9 gave: combined z-score class low cell count with doxorubicin only (active); viability z-score with doxorubicin -2.59; viability z-score without drug 0.84.

Depletion of Mcf2l resulted in: combined z-score class no change with or without drug; viability z-score with doxorubicin -0.67; viability z-score without drug 0.67. C4b scored combined z-score class no change with or without drug; viability z-score with doxorubicin 0.67; viability z-score without drug 0.67. Silencing of Lypd11 gave: combined z-score class no change with or without drug; viability z-score with doxorubicin 0; viability z-score without drug -0.67. With knock-down of Wap, the record shows combined z-score class high cell count with doxorubicin only; viability z-score with doxorubicin 2.36; viability z-score without drug 1.85. Against Anxa9 the deposit lists combined z-score class no change with or without drug; viability z-score with doxorubicin 0.34; viability z-score without drug 0.34.
